We go through 28 compounds from the supplement of paper PMC11348887.

Settings in all cases: 5 µM; treatment: days 7-14 after plating, readout day 21
The test system of assay [1] is hPSC-derived cortical neurons (WA09). The experiment in a line: nucleus area z-score vs screen plate; higher = larger nuclei (more mature).
The test system is the same in assay [2]. The experiment in a line: total neurite length per nucleus (MAP2) z-score; higher = more neurite growth.
The test system is the same in assay [3]. The assay is described as follows: nucleus roundness z-score vs screen plate; higher = rounder nuclei (more mature).
The test system is the same in assay [4]. The assay is described as follows: KCl-induced FOS+/EGR-1+ double-positive nuclei fraction z-score (KCl minus unstimulated); higher = stronger activity-induced IEG response.

Structures are written as SMILES. Structures can show the parent of a compound that is named as a salt. This is one part of the list. Small differences around the control level are noise.

On to `C[C@H](Nc1ncnc2nc[nH]c12)c1cc2cccc(Cl)c2c(=O)n1-c1ccccc1`, for which the nucleus area z-score in assay [1] is 1.19. Besides, the “total neurite length per nucleus (z-score)” value in assay [2] was 0.17. Also, the nucleus roundness z-score in assay [3] is -0.331. In assay [4], the “KCl-induced FOS+/EGR-1+ double-positive nuclei fraction z-score” value is -0.366.
In turn, `CN(CC(=O)N(Cc1ccc(C2CCCCC2)cc1)c1ccc(C(=O)O)cc1)S(=O)(=O)c1c(F)c(F)c(F)c(F)c1F` had a nucleus area z-score in assay [1] of -5.22. Further, in assay [2], the “total neurite length per nucleus (z-score)” value was -3.54. For the same compound, the nucleus roundness z-score in assay [3] was -2.85. Besides, the “KCl-induced FOS+/EGR-1+ double-positive nuclei fraction z-score” value in assay [4] is -0.331.
For `COC(=O)[C@H](c1ccccc1Cl)N1CCc2sccc2C1` [Clopidogrel], in that order: -1.43, 0.0878, -0.229 and -0.335.
For `CC(C)NC[C@@H](C(=O)N1CCN(c2ncnc3c2[C@H](C)C[C@H]3O)CC1)c1ccc(Cl)cc1`, the nucleus area z-score in assay [1] is -5.51. The “total neurite length per nucleus (z-score)” value in assay [2] is -1.95. The nucleus roundness z-score in assay [3] was -1.66. Besides, the “KCl-induced FOS+/EGR-1+ double-positive nuclei fraction z-score” value in assay [4] was -1.02.
For `N=C(N)Nc1ccc(C(=O)Oc2ccc3cc(C(=N)N)ccc3c2)cc1` [Nafamostat Mesylate], in that order: 0.869, 0.18, 0.396 and 0.0145.
In assay [1], `O=C(/C=C/N1C[C@H]2C[C@@H]1CN2c1ccccn1)c1ccccc1O` yielded a nucleus area z-score of 1.41. For the same compound, the “total neurite length per nucleus (z-score)” value in assay [2] is 1.94. In assay [3], the nucleus roundness z-score is 0.6. In addition, in assay [4], the “KCl-induced FOS+/EGR-1+ double-positive nuclei fraction z-score” value amounted to 1.36.
`CN(C)CCCNC(=O)c1ccc(-c2cc(O)c3ncccc3c2)cc1`: in assay [1], the nucleus area z-score was 1. The “total neurite length per nucleus (z-score)” value in assay [2] worked out at 1.54. Further, the nucleus roundness z-score in assay [3] came to 0.82. For the same compound, the “KCl-induced FOS+/EGR-1+ double-positive nuclei fraction z-score” value in assay [4] is 0.537.
For `CCc1cc(/C(C)=N/OCc2ccc(C3CCCCC3)c(C(F)(F)F)c2)ccc1CN1CC(C(=O)O)C1` [BAF312 (Siponimod)], in that order: 0.158, 0.801, 0.803 and 0.632.
Turning to `N[C@@H](CSCCB(O)O)C(=O)O`, the nucleus area z-score in assay [1] was found to be 0.692. For the same compound, the “total neurite length per nucleus (z-score)” value in assay [2] was 0.569. In assay [3], this compound had a nucleus roundness z-score of 0.692. For the same compound, in assay [4], the “KCl-induced FOS+/EGR-1+ double-positive nuclei fraction z-score” value stood at 0.738.
In turn, `CC(C)(Oc1ccc(Cl)cc1)C(=O)O` [Clofibric Acid] displayed a nucleus area z-score in assay [1] of 0.371. In assay [2], the “total neurite length per nucleus (z-score)” value is -0.023. Besides, in assay [3], the nucleus roundness z-score was 1.23. Moreover, the “KCl-induced FOS+/EGR-1+ double-positive nuclei fraction z-score” value in assay [4] worked out at 0.359.
Taken in the same sequence, the figures for `COc1ccc([C@@H]2Sc3ccccc3N(CCN(C)C)C(=O)[C@@H]2OC(C)=O)cc1` [Diltiazem HCl] were 0.486, 0.614, 0.982 and 0.0641.
Compound `CN/C(=N\CCSCc1nc[nH]c1C)NC#N` [Cimetidine] showed a nucleus area z-score in assay [1] of -0.155. For the same compound, the “total neurite length per nucleus (z-score)” value in assay [2] amounted to 0.0943. The compound also yielded a nucleus roundness z-score in assay [3] of -0.124. Besides, the “KCl-induced FOS+/EGR-1+ double-positive nuclei fraction z-score” value in assay [4] stood at 0.979.
With `COc1cc(Nc2ncc(F)c(Nc3ccc4c(n3)NC(=O)C(C)(C)O4)n2)cc(OC)c1OC` [R406 (free base)], the nucleus area z-score in assay [1] is -0.506. For the same compound, the “total neurite length per nucleus (z-score)” value in assay [2] turned out to be 0.811. The nucleus roundness z-score in assay [3] was 0.326. Besides, the “KCl-induced FOS+/EGR-1+ double-positive nuclei fraction z-score” value in assay [4] turned out to be 1.35.
For `NNC(=O)c1ccncc1` [Isoniazid], in that order: 1.14, 0.256, 0.0637 and 2.24.
In turn, `CN1CCN(S(=O)(=O)c2ccc(-c3cnc(N)c(C(=O)Nc4cccnc4)n3)cc2)CC1` yielded a nucleus area z-score in assay [1] of -0.245. The “total neurite length per nucleus (z-score)” value in assay [2] is -1.85. The compound also displayed a nucleus roundness z-score in assay [3] of -3.01. Further, the “KCl-induced FOS+/EGR-1+ double-positive nuclei fraction z-score” value in assay [4] was -0.0614.
For `CC(C)N(CCC(=O)c1ccc2ccccc2c1)Cc1ccccc1`, in that order: -10.7, -3.97, -5.72 and -0.552.
For `O=C(O)[C@]1(Cc2cccc(Nc3nccs3)n2)CC[C@@H](Oc2cccc(Cl)c2F)CC1`, in that order: -0.0991, 0.102, 0.166 and -0.871.
Taken in the same sequence, the figures for `CCC[C@H](NC(=O)[C@@H]1[C@H]2CCC[C@H]2CN1C(=O)[C@@H](NC(=O)[C@@H](NC(=O)c1cnccn1)C1CCCCC1)C(C)(C)C)C(=O)C(=O)NC1CC1` [Telaprevir (VX-950)] were 0.442, -0.243, -0.0386 and -0.922.
For `NS(=O)(=O)c1ccc(C(=O)O)cc1` [Carzenide], the nucleus area z-score in assay [1] is -0.0672. In assay [2], the “total neurite length per nucleus (z-score)” value came to 0.549. Besides, the nucleus roundness z-score in assay [3] came out at 1.09. The “KCl-induced FOS+/EGR-1+ double-positive nuclei fraction z-score” value in assay [4] was 0.0555.
Taken in the same sequence, the figures for `COc1cc(OCc2cccc(-c3ccccc3)c2C)cc(OC)c1CN1CCCC[C@H]1C(=O)O` [PD-1/PD-L1 inhibitor 1] were -0.255, 0.767, 1.02 and 1.67.
Taken in the same sequence, the figures for `O=C(c1ccc(F)cc1)C1CCN(CCn2c(=O)[nH]c3ccccc3c2=O)CC1` [Ketanserin] were -0.159, -0.25, 0.426 and 0.224.
Compound `c1ccc2c(CCNc3ccc(Nc4ccncc4)cc3)c[nH]c2c1` returned a nucleus area z-score in assay [1] of -0.00744. Moreover, the “total neurite length per nucleus (z-score)” value in assay [2] turned out to be 1.42. The compound also came in with a nucleus roundness z-score in assay [3] of -2.44. The “KCl-induced FOS+/EGR-1+ double-positive nuclei fraction z-score” value in assay [4] was 0.866.
Taken in the same sequence, the figures for `CN1CCc2c(c3ccccc3n2Cc2ccc(C(=O)NO)cc2)C1` [Tubastatin A] were -0.466, 0.509, -0.344 and 0.127.
For `Cc1cccc(Nc2cc(Cl)nc(SCC(=O)O)n2)c1C`, in that order: 0.111, 0.359, 0.00576 and 1.55.
Turning to `CCN(CC)Cc1cc(Nc2ccnc3cc(Cl)ccc23)ccc1O` [Amodiaquine dihydrochloride dihydrate], in assay [1], the nucleus area z-score is -3.55. In addition, the “total neurite length per nucleus (z-score)” value in assay [2] is -1.23. The nucleus roundness z-score in assay [3] was -1.95. Further, the “KCl-induced FOS+/EGR-1+ double-positive nuclei fraction z-score” value in assay [4] was -0.469.
The compound `O=c1c(O)c(-c2cc(O)c(O)c(O)c2)oc2cc(O)cc(O)c12` [Myricetin] displayed a nucleus area z-score in assay [1] of -0.525. For the same compound, the “total neurite length per nucleus (z-score)” value in assay [2] was 0.56. This compound came in with a nucleus roundness z-score in assay [3] of 0.66. Moreover, the “KCl-induced FOS+/EGR-1+ double-positive nuclei fraction z-score” value in assay [4] is 0.497.
Taken in the same sequence, the figures for `Cn1cc(/C=C/C(=O)c2cccc(F)c2)cc1/C=C/C(=O)NO` were 0.00135, 0.132, 0.228 and 1.89.
For `CCCCCCOC(=O)NC(=N)c1ccc(NCc2nc3cc(C(=O)N(CCC(=O)OCC)c4ccccn4)ccc3n2C)cc1` [Dabigatran Etexilate], in that order: 0.822, -0.289, -0.847 and -0.921.
